These are yes or no findings as the source states them, for the method shown. In cells and extracts the contact can be indirect. Binding calls can cover weak binding; strength is not graded here.
What was measured:
Test in all cases: co-purification; StXPB variants co-expressed with Bax1^ΔC in E. coli; Ni-NTA by the His8 tag on StXPB, tag removed, HiTrap SP FF ion exchange, Superdex 200 gel filtration; samples shown by SDS-PAGE
[1] = target: StXPB mutant with R205A/D206A/D207A substitutions (RED motif) (Sulfurisphaera tokodaii)
[2] = target: StXPB mutant with deletion of residues 258 to 299 (ΔThM2) (Sulfurisphaera tokodaii)
[3] = target: StXPB mutant with deletion of residues 270 to 280 (ΔThM1) (Sulfurisphaera tokodaii)

Measured: binding

B1: StBax1^ΔC (truncated Bax1 without the C-terminal domain, residues 2-373) (domain or fragment, UniProt Q970I1 2-373)
chain: LPWELARFSIVKDEVLPHFATNEDLDLANEIISLFKAGKKLGEIDEEIEYLEKIYDHKLVRAFVKLLTRLCEFELDSPIPPIQIRRELFKYGPVLDEKEREDIIQKVSKKLGADIMRFVFSDLDEEKKIIKAPTISAEDLIRWYNLSLLQTLLFKAYKLTVYVSSNWKEIIRRAKWLGLMYFAYDKPLRFEFLGPATLVKLTEKYGRNLAVLLQFIISSQNWKIEAELVLGKKFKRVYKLKLANFKELKELVIDEKRFDSSVEEKFYKDFTNVIKGWKIIREPEPLVVDNRVFIPDFLVEKGNLKVYVEIVGFWTKEYIKEKLDKLKKVKYPILILLNEELGKEKFNGMNVITYKRKIDISLVYKWLRELEN
binds: all assays above

From publication PMC7672443, “Structural basis of the XPB helicase–Bax1 nuclease complex interacting with the repair bubble DNA” (Nucleic Acids Research, 2020)
